Experimental data: PubChem BioAssay AID1259328 (Drosophila RNAi Screening Center, 2017)
Purpose: 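Fly genes whose loss alters cell survival under toxic zinc levels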. Cell system: Drosophila S2R+ cells. Knock-down reagent: long dsRNA against Drosophila genes. Timing: 5 days (4 days knock-down, then 1 day metal). Challenge: zinc chloride added to 15 mM final for 1 day. Measurement: 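ATP luminescence per well as a viability signal, measured after 4 days of knock-down and 1 day of 15 mM zinc chloride, reported as mean z-score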. Reading the numbers: ATP z-score, averaged: higher = more ATP, more viable cells under zinc. Hit rule: 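a gene counts as active if its set 1 mean z-score lies outside the range -1.5 to 1.5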.
Shown is an unselected part of 95 reagents tested. Of all reagents, 6 (6.3%) are marked active. 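Only two distinct z-score sets exist; calls follow set 1, and set 2 holds one inactive gene scoring above 1.5.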 Unmarked entries are inactive. Not stated in the record: the amount of reagent.

Nhe2 [DRSC03172] → ATP z-score, averaged, set 1: -0.179; ATP z-score, averaged, set 2: -0.0928
Nhe2 [DRSC03377] → ATP z-score, averaged, set 1: -0.316; ATP z-score, averaged, set 2: -0.188
Vha36-1 [DRSC07098] → ATP z-score, averaged, set 1: 0.345; ATP z-score, averaged, set 2: 0.616
Vha36-1 [DRSC25624] → ATP z-score, averaged, set 1: -0.00754; ATP z-score, averaged, set 2: 0.458
sp3 [DRSC16354] → ATP z-score, averaged, set 1: -0.162; ATP z-score, averaged, set 2: -0.0874
sp3 [DRSC41446] → ATP z-score, averaged, set 1: -0.0157; ATP z-score, averaged, set 2: 0.338
foi [DRSC29596] → ATP z-score, averaged, set 1: 2.4 (active); ATP z-score, averaged, set 2: 2.59
foi [DRSC35740] → ATP z-score, averaged, set 1: -0.0497; ATP z-score, averaged, set 2: -0.277
stw [DRSC04842] → ATP z-score, averaged, set 1: -0.22; ATP z-score, averaged, set 2: -0.125
stw [DRSC04843] → ATP z-score, averaged, set 1: -0.373; ATP z-score, averaged, set 2: -0.413
Syx5 [DRSC03432] → ATP z-score, averaged, set 1: 0.46; ATP z-score, averaged, set 2: 0.0739
Syx5 [DRSC40872] → ATP z-score, averaged, set 1: 0.512; ATP z-score, averaged, set 2: 0.376
Zip99C [DRSC16320] → ATP z-score, averaged, set 1: -0.487; ATP z-score, averaged, set 2: -0.339
Zip99C [DRSC40024] → ATP z-score, averaged, set 1: -0.401; ATP z-score, averaged, set 2: -0.0938
Pop2 [DRSC10537] → ATP z-score, averaged, set 1: 1.09; ATP z-score, averaged, set 2: 1.16
Pop2 [DRSC32413] → ATP z-score, averaged, set 1: -0.00176; ATP z-score, averaged, set 2: 0.809
